According to article doi:10.1101/2020.12.09.418111:
These are yes or no findings as the source states them, for the method shown. In cells and extracts the contact can be indirect. Some entries that bind do so weakly or less than the wild type. Where a sequence is shown, tags or fusion partners need not be part of it.

Amino acid sequences for entries named in this document (tags omitted).
UniProt Q13263: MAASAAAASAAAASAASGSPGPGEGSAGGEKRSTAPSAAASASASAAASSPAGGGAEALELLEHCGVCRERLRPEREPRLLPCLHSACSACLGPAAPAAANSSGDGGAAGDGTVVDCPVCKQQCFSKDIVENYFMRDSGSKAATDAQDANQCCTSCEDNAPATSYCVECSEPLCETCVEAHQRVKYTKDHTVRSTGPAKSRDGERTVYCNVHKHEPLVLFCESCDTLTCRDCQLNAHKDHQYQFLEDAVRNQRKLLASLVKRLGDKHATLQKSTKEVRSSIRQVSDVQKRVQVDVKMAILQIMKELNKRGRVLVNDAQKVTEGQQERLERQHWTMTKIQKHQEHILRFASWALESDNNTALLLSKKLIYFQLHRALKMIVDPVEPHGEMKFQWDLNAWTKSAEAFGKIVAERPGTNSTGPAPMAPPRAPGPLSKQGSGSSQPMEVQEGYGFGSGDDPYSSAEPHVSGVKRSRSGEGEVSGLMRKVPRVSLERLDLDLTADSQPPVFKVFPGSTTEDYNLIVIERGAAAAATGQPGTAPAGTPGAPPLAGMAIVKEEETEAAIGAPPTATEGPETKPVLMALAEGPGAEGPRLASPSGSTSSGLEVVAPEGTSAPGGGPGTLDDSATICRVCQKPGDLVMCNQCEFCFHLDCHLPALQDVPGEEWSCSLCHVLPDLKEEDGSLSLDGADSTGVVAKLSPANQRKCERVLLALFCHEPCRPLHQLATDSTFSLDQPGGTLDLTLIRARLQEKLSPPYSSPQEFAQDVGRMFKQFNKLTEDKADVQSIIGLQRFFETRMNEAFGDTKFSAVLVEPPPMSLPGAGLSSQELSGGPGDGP

Columns and labels:
[1] = target: T1, Kaiso-GFP (UniProt Q86T24); experiment: co-IP
T1 sequence: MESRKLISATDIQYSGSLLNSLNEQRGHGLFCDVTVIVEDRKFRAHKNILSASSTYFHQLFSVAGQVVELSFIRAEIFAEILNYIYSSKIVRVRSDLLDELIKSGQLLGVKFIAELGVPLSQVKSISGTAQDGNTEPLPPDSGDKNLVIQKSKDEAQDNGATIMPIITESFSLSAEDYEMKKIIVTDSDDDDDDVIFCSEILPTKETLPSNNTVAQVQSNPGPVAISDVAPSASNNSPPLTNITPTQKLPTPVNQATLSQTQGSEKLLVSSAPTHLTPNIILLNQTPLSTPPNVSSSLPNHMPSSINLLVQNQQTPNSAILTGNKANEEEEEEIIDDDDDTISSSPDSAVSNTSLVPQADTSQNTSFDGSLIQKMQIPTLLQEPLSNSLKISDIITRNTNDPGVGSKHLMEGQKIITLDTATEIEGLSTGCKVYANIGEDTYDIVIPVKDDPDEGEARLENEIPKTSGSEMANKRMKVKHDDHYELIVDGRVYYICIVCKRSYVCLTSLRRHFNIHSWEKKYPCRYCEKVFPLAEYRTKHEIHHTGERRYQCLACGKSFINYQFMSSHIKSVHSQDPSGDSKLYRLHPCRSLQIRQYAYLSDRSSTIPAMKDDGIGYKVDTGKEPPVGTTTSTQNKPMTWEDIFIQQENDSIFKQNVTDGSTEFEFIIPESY

[2] = target: T2, GST-Kaiso BTB/POZ domain (1-117) (UniProt Q86T24); experiment: pull-down
T2 sequence: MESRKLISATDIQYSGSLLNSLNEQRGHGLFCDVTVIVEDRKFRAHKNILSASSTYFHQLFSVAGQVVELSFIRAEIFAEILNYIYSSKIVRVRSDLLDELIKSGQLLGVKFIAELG

[3] = target: T3, GST-Kaiso zinc fingers (494-573) (UniProt Q86T24); experiment: pull-down
T3 sequence: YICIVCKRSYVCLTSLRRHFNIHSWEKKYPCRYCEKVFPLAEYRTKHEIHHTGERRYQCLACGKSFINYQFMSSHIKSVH

[4] = target: T4, GST-full length Kaiso (1-692) (UniProt Q86T24); experiment: pull-down
T4 sequence: T1 sequence

binding [1]: binds | binding [2]: binds | binding [3]: binds | binding [4]: binds
Substance: TRIM28 tagged with HA (from UniProt Q13263 1-835)
